In PMC5966388:
No constants are given. Whether binding was seen depends on the method and setting. Binding seen in cells or lysates may run through a third protein. Some entries that bind do so weakly or less than the wild type. Sequences can lack the tags named with a protein.

The chains behind the UniProt entries cited, without tags or fusion partners. Residues count along the entry.
UniProt P05106, residues 27-788: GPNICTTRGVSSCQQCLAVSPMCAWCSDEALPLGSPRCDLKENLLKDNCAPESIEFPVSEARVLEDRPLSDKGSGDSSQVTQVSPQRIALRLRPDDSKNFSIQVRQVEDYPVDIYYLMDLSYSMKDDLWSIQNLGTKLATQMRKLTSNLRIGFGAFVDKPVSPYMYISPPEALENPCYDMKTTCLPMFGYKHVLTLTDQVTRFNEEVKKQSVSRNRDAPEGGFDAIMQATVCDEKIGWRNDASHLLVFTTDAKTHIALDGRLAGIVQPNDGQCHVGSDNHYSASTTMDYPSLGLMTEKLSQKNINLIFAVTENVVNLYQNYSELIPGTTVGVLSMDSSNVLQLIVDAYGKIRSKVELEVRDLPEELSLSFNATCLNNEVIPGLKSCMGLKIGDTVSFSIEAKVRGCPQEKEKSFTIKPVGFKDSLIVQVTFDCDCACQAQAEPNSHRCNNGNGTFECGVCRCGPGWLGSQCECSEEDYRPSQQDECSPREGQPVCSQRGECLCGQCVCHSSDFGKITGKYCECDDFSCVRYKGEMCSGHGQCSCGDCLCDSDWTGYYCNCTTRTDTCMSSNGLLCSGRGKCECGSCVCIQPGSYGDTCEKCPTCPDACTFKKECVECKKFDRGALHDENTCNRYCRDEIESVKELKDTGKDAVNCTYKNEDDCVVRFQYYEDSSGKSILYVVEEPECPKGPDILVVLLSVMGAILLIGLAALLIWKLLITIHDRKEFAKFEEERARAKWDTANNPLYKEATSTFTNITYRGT

Columns and labels:
[1] = biological target: β3-integrin (ITGB3), Myc-tagged (UniProt P05106); test: co-IP; HEK293T cells transfected with two proteins; lysis in 50 mM Hepes pH 7.6, 150 mM NaCl, 5 mM EDTA, 1-2% Nonidet P-40; lysates incubated overnight at 4 °C with anti-GFP, anti-Myc (9E10) or anti-Flag M2, then 1 h with Protein-A Sepharose; three washes in buffer without NP-40; western blot
[2] = biological target: β3-integrin (ITGB3), Myc-tagged (UniProt P05106); test: co-IP; reverse competition (Supplementary Figure S4a and b): interaction of TGFBI with ITGB3/5 tested with overexpression of pro-TGFβ1; details of the IP not shown

B1: transforming growth factor beta-induced (TGFBI), non-tagged (protein, UniProt Q15582 24-683)
chain: GPAKSPYQLVLQHSRLRGRQHGPNVCAVQKVIGTNRKYFTNCKQWYQRKICGKSTVISYECCPGYEKVPGEKGCPAALPLSNLYETLGVVGSTTTQLYTDRTEKLRPEMEGPGSFTIFAPSNEAWASLPAEVLDSLVSNVNIELLNALRYHMVGRRVLTDELKHGMTLTSMYQNSNIQIHHYPNGIVTVNCARLLKADHHATNGVVHLIDKVISTITNNIQQIIEIEDTFETLRAAVAASGLNTMLEGNGQYTLLAPTNEAFEKIPSETLNRILGDPEALRDLLNNHILKSAMCAEAIVAGLSVETLEGTTLEVGCSGDMLTINGKAIISNKDILATNGVIHYIDELLIPDSAKTLFELAAESDVSTAIDLFRQAGLGNHLSGSERLTLLAPLNSVFKDGTPPIDAHTRNLLRNHIIKDQLASKYLYHGQTLETLGGKKLRVFVYRNSLCIENSCIAAHDKRGRYGTLFTMDRVLTPPMGTVMDVLKGDNRFSMLVAAIQSAGLTETLNREGVYTVFAPTNEAFRALPPRERSRLLGDAKELANILKYHIGDEILVSGGIGALVRLKSLQGDKLEVSLKNNVVSVNKEPVAEPDIMATNGVVHVITNVLQPPANRPQERGDELADSALEIFKQASAFSRASQRSVRLAPVYQKLLERMKH
- binding [1]: binds
- binding [2]: binds
